# According to the supplement of paper PMC11732987, “Enantioselective OTUD7B fragment discovery through chemoproteomics screening and high-throughput optimisation” (Communications Chemistry, 2025):
# Protein sequences, listed by entry. Tags and fused reporters are not part of them. Lines headed by an entry give the natural chain unless they say otherwise; changes in a name come on top. Residues count along the entry.
# UniProt Q9BV23: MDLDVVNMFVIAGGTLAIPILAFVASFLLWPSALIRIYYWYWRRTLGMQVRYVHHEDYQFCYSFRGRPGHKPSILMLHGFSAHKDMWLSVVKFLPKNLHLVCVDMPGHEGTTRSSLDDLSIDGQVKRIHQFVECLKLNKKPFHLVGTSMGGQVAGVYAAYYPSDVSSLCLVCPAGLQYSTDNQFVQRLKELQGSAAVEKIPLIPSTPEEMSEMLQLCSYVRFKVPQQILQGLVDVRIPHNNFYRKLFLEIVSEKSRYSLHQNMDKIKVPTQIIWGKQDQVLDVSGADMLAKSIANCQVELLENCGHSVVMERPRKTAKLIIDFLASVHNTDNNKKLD
# UniProt Q9H7C9: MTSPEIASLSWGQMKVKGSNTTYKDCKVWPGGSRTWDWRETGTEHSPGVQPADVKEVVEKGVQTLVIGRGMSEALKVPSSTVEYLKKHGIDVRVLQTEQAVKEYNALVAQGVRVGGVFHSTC
# UniProt Q6PCB6, 51-94: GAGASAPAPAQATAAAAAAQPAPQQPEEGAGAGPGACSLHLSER
# UniProt Q9UG63: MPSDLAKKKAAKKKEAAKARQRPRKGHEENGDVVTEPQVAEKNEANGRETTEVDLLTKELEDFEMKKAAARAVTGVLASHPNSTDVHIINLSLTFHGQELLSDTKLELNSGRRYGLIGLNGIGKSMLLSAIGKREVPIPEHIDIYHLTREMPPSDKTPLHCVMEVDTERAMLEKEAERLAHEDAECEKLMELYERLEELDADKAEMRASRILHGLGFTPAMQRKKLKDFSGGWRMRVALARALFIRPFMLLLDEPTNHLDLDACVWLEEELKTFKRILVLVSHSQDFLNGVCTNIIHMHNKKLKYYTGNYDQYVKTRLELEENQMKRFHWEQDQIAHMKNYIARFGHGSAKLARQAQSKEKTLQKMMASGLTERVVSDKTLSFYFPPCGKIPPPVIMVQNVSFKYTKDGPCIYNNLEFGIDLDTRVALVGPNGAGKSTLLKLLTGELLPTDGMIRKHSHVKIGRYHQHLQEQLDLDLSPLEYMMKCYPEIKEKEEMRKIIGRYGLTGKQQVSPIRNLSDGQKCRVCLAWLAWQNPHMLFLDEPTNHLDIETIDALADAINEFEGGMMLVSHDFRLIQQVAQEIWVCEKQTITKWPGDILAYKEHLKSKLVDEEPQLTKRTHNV
# UniProt Q8N2K0: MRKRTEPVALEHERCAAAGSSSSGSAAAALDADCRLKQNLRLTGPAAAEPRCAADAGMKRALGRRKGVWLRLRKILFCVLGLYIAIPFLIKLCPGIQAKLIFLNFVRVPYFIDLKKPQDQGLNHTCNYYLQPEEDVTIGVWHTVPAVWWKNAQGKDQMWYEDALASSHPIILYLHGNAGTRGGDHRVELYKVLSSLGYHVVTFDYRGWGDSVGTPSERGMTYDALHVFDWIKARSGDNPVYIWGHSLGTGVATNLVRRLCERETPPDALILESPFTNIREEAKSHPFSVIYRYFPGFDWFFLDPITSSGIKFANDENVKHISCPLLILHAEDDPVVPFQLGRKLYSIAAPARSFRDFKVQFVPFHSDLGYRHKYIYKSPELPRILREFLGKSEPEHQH
# UniProt Q9H845: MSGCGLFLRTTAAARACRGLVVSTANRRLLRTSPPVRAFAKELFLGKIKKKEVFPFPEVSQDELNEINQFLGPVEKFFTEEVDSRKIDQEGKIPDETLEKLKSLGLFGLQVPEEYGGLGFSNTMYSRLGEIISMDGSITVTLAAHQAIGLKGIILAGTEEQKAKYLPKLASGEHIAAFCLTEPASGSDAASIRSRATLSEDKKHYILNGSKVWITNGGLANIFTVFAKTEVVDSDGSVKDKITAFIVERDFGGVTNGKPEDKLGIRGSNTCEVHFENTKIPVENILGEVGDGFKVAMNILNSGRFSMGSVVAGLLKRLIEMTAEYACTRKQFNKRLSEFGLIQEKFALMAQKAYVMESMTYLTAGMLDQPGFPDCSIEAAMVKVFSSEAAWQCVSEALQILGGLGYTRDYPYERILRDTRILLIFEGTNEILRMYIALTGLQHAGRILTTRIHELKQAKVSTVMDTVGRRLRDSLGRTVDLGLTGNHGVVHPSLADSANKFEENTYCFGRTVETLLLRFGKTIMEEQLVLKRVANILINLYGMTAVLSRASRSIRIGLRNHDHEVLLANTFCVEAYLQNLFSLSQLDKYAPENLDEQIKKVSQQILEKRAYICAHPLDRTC
# UniProt Q9BTE6: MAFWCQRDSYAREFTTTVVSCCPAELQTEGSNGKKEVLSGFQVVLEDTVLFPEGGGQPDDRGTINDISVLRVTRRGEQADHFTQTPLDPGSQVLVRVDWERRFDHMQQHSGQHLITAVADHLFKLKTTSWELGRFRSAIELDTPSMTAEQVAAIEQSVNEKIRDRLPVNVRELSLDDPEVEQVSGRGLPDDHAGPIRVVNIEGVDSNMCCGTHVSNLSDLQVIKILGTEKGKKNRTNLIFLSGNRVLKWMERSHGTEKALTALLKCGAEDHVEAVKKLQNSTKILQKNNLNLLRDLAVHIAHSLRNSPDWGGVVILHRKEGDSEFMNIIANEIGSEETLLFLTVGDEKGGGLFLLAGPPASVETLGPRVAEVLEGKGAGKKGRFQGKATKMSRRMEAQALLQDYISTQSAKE
# UniProt P00519, whole entry, looked up: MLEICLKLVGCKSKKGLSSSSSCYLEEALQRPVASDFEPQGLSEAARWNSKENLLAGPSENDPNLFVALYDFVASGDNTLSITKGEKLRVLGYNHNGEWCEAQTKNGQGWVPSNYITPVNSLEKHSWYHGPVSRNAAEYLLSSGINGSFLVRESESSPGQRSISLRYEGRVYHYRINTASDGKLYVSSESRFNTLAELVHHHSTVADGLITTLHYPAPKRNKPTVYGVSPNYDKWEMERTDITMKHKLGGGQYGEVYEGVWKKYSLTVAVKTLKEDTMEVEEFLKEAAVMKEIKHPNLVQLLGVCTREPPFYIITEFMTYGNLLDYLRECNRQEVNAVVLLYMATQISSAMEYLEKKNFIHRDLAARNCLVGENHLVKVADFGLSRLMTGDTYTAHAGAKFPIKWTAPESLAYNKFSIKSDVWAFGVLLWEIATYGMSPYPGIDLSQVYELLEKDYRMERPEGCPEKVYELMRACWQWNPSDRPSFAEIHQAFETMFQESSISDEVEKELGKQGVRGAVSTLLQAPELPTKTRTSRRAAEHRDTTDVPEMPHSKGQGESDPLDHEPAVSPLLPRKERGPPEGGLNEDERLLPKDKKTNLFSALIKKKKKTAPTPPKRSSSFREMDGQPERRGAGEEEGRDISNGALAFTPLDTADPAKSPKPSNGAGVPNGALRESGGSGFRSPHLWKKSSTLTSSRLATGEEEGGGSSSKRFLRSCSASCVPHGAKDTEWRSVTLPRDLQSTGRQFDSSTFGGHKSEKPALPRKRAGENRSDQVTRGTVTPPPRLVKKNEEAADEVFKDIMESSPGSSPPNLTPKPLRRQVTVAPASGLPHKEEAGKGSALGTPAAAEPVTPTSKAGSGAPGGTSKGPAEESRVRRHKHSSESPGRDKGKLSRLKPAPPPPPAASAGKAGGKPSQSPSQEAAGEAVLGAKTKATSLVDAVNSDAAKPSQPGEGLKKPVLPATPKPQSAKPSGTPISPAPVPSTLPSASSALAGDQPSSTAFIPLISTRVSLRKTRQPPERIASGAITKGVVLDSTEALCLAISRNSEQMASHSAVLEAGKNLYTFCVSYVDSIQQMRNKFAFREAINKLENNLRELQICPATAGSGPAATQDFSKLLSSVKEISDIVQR
# UniProt P42684, 992-1024: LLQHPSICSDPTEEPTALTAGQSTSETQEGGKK
# UniProt Q5JTZ9, whole entry, looked up: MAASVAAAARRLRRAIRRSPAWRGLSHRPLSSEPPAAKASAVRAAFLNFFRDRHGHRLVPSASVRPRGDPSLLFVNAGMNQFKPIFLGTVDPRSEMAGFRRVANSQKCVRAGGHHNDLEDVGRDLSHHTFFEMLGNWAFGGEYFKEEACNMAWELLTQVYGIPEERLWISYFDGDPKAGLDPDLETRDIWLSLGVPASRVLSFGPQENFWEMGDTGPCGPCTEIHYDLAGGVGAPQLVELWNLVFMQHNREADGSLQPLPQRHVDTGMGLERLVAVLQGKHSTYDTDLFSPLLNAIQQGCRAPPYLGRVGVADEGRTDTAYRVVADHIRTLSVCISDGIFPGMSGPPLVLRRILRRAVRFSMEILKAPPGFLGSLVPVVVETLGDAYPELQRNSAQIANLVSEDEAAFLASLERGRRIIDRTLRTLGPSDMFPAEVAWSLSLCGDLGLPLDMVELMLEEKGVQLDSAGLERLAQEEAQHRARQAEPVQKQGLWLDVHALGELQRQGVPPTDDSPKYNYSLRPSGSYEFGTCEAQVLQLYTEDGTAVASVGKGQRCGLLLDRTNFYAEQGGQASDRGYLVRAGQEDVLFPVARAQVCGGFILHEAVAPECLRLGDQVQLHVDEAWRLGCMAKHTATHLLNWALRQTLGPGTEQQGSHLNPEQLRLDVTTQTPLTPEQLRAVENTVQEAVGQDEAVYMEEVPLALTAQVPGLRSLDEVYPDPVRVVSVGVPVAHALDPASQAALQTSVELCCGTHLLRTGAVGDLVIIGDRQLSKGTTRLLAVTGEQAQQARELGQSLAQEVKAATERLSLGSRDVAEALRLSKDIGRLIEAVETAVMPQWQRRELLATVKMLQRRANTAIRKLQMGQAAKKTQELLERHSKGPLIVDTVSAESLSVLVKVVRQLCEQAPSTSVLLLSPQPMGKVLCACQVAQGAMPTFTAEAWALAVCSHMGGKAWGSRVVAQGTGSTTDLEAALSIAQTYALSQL
# UniProt P33897: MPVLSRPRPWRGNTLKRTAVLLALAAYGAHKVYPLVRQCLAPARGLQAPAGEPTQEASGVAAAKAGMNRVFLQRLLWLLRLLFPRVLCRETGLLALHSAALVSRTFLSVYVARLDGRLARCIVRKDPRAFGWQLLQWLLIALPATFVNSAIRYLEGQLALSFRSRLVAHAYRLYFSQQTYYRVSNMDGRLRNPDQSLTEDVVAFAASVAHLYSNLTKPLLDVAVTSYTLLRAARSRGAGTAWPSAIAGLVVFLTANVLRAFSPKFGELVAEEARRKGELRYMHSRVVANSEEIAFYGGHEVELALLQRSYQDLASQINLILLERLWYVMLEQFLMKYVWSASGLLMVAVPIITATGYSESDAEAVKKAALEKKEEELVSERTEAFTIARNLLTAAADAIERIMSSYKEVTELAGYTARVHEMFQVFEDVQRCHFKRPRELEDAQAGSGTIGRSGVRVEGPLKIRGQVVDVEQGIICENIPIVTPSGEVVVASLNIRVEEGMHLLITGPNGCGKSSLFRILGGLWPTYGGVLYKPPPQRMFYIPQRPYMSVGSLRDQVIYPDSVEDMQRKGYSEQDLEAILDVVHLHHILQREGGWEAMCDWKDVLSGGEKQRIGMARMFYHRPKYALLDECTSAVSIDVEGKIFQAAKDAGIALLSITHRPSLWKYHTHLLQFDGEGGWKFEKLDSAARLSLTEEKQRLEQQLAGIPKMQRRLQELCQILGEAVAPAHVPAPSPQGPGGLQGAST
# UniProt Q9NRG9: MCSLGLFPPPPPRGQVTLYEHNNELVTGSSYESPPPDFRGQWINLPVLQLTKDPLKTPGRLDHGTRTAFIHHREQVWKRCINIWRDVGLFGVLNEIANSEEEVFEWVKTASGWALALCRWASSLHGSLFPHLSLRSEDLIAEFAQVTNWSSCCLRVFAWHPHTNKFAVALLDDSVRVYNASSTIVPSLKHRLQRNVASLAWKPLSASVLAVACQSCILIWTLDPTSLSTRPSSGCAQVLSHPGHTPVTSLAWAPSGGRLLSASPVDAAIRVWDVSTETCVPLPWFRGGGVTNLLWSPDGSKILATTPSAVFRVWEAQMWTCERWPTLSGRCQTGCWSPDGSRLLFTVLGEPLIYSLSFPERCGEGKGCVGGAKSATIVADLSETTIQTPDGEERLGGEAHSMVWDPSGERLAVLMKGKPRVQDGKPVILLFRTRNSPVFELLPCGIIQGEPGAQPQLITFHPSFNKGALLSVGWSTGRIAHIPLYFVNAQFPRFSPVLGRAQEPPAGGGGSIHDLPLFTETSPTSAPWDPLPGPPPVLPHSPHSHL
# UniProt P09110, 139-158: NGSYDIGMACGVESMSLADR
# The other results are listed elsewhere or left out. The data scatter; read single values as rough.
# Key:
# [1] = compound: ClCC(=O)N[C@@H]1CCCc2ccccc12; test: log2 mean competition ratio of IA-DTB cysteine labelling (DMSO/compound) (log2 ratio); higher = stronger cysteine engagement by compound; settings: treatment time: 4 h, cell line lysate: HEK293T
# Method: (§1)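 IA-DTB competitive cysteine chemoproteomics in HEK293T RIPA lysate. Lysates were treated with compound 29 or 30 at 50 or 200 µM for 4 h, then IA-DTB (500 µM, 1 h), trypsin-digested, NeutrAvidin-enriched and analysed by diaPASEF. Competition ratio = intensity DMSO / intensity compound (n=4 treated, n=64 DMSO); binding: mean log2 CR ≥ 1 and p ≤ 0.05 plus QC filters. Target is the cysteine site.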
# [2] = compound: ClCC(=O)N[C@H]1CCCc2ccccc12; test: as above; settings: treatment time: 4 h, cell line lysate: HEK293T
# Method: as §1
Target,log2 mean competition ratio ([1]; 50 µM),log2 mean competition ratio ([1]; 200 µM),log2 mean competition ratio ([2]; 50 µM),log2 mean competition ratio ([2]; 200 µM)
ABHD6 C102 (UniProt Q9BV23),-0.283,-0.0419,-0.794,-0.259
AAMDC C122 (UniProt Q9H7C9),0.139,0.105,0.105,0.267
ABCE1 C38,-0.0752,0.108,-0.253,-0.0142
ABHD17C C87 (UniProt Q6PCB6),-0.409,-0.165,-0.243,-0.115
ACADSB C385 (UniProt P45954),0.21,0.0988,0.479,-0.0194
AASS C342,-0.306,-0.249,-0.267,-0.316
ACAA2 C179,-0.173,-1.15,-0.0373,-0.173
ABCF2 C388 (UniProt Q9UG63),0.734,0.328,0.47,0.466
ABCC1 C1479 (UniProt P33527),-0.0514,0.0857,-0.401,-0.313
AASS C765,-0.312,0.0116,-0.0191,0.0889
ABHD12 C52 (UniProt Q8N2K0),0.00743,0.178,-0.074,0.196
ACAD9 C271 (UniProt Q9H845),-0.0944,-0.157,-0.36,-0.222
ABCF1 C515,-0.965,0.698,0.46,0.111
ACACA C813 (UniProt Q13085),0.0921,0.534,-0.322,0.31
AARSD1 C266 (UniProt Q9BTE6),-0.239,-0.255,0.123,0.0466
ABL1 C464 (UniProt P00519),0.165,-0.22,0.313,-0.152
ABL2 C999 (UniProt P42684),-0.155,-0.219,0.139,-0.165
AAK1 C288,0.516,0.464,0.607,0.276
AARS2 C555 (UniProt Q5JTZ9),0.354,-0.166,-0.153,0.0137
ABCD1 C511 (UniProt P33897),0.105,0.136,-0.192,-0.0299
ABCD1 C39 (UniProt P33897),-0.333,0.224,0.0134,0.138
AAAS C2 (UniProt Q9NRG9),-0.135,-0.332,-0.117,0.107
ACAA1 C148 (UniProt P09110),0.317,0.0751,0.903,-0.0825
ABCD1 C631 (UniProt P33897),0.368,-0.0265,0.199,0.268

# A portion from the list above, for reference:
Target,log2 mean competition ratio ([1]; 50 µM),log2 mean competition ratio ([1]; 200 µM),log2 mean competition ratio ([2]; 50 µM),log2 mean competition ratio ([2]; 200 µM)
ABCD1 C39 (UniProt P33897),-0.333,0.224,0.0134,0.138
AAAS C2 (UniProt Q9NRG9),-0.135,-0.332,-0.117,0.107
